In paper PMC7466261 (Foods, 2020):
Plain letter strings leave the end groups untold. HELM strings list residues between dots; [ac] is acetyl, [am] amide, other brackets name non-standard units. Where no end group is shown, it is not given here.

experiment: general procedure: Fmoc solid-phase peptide synthesis; polystyrene-based resin (Applied Biosystems); conditions: whole synthesis, HPLC-MS/MS, peak integration

Row | Substance | purity (crude or final not stated)
1 | AYFYPE | 99.2%
2 | FYPEL | 99.0%
3 | PEPTIDE1{Y.P.W.T}$$$$V2.0 | 91.7%
4 | RYLGY | 88.0%
5 | RYLGYLE | 73.4%
6 | YFYPEL | 100.0%
7 | YGFLP | 100.0%
8 | YLGYLE | 98.9%
9 | YPFPGPI | 96.0%
10 | YPFPGPIN | 94.0%
11 | YPFPGPIP | 92.9%
12 | YPFVE | 95.0%
13 | YPFVEP | 100.0%
14 | YPVEPF | 92.3%
